Experimental data as given in the supplement of paper PMC10849652.
The list shows a part of the results.

The chains behind the UniProt entries cited, without tags or fusion partners. Where a name states a change or a piece, a line headed by the entry shows the natural chain unless it says otherwise.
UniProt P29373: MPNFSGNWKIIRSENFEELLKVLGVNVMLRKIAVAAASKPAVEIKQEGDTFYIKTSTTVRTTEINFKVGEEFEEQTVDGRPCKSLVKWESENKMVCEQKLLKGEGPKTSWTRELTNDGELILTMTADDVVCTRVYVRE
UniProt Q96BR5: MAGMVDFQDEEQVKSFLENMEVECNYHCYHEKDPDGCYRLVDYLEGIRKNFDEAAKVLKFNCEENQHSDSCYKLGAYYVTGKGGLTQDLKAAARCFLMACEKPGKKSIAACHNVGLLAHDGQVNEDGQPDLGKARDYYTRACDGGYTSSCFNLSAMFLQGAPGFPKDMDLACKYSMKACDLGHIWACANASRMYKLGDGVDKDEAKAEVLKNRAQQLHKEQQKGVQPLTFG
UniProt P24311, whole entry, looked up: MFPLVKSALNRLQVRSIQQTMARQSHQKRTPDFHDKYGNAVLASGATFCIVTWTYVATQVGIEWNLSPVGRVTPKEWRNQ
UniProt Q14061: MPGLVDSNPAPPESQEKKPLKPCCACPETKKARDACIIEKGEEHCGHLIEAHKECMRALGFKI
UniProt Q12887: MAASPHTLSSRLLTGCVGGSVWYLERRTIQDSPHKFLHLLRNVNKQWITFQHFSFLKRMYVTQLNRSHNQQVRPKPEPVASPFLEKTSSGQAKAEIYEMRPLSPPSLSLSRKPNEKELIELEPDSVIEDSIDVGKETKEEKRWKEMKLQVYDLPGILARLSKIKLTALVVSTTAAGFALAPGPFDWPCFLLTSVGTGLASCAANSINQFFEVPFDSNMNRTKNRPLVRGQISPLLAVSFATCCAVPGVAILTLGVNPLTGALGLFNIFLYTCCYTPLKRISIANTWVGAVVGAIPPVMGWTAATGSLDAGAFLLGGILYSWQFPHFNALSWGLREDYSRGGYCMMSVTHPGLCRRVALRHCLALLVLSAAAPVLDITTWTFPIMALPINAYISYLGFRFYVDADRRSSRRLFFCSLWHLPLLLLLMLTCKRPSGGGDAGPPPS
UniProt Q9ULV4, whole entry, looked up: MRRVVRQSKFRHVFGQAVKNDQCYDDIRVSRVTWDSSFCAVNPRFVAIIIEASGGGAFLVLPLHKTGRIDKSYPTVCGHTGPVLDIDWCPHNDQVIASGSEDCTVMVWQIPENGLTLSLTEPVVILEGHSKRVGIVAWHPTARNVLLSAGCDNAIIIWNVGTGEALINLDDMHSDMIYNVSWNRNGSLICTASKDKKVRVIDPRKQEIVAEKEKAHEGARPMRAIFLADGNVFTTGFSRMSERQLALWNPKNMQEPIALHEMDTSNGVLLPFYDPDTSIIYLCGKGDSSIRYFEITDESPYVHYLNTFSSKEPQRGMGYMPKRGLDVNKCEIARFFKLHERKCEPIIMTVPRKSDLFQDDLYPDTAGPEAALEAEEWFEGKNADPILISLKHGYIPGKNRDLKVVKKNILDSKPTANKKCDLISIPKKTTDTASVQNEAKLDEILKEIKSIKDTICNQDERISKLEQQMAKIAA
UniProt Q9BU20: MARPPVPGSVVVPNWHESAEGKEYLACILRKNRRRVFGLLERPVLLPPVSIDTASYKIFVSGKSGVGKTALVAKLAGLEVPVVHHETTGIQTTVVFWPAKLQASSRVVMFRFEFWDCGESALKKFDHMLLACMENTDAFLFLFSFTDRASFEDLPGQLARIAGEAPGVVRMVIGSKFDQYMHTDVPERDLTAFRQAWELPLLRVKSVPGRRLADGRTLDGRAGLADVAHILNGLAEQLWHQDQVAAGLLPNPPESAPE
UniProt Q92828: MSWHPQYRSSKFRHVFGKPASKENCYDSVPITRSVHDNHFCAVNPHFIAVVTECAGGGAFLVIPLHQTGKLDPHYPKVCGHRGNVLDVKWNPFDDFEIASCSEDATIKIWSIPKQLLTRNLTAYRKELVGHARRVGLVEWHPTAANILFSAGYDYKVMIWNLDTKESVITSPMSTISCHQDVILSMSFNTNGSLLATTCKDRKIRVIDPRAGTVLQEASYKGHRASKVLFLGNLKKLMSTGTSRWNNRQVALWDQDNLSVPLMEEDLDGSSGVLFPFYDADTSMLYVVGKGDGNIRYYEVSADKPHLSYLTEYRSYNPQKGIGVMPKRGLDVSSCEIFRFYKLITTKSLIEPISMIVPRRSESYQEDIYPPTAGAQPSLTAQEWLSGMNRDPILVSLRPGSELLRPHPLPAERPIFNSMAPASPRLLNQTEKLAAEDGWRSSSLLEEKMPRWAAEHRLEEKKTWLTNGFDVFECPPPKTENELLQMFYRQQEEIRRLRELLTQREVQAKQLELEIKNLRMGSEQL
UniProt Q9Y2Z9: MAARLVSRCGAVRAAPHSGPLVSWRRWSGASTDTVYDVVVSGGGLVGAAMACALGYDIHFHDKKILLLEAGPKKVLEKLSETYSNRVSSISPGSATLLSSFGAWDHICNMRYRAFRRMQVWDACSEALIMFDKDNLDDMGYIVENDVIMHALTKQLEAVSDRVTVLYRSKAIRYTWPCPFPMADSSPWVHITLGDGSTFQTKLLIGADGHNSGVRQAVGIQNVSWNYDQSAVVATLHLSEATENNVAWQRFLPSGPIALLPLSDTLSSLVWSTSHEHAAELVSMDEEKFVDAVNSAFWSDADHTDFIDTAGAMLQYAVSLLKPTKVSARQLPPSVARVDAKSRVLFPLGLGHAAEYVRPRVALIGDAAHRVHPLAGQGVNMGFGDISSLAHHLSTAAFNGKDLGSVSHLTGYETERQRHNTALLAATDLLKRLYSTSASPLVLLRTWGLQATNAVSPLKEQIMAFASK
UniProt P61201: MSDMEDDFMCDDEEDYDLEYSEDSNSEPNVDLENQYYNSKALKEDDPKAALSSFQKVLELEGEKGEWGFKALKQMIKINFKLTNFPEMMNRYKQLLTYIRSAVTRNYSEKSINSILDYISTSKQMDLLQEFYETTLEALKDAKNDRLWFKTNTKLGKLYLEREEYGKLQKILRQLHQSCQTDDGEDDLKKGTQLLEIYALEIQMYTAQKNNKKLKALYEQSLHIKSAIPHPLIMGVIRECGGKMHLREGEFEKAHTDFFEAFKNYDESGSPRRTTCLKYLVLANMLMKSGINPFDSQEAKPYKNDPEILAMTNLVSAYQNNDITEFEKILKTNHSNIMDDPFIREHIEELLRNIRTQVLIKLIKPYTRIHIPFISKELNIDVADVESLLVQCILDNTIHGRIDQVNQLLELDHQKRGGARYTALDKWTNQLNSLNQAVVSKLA
UniProt Q8NHY2, whole entry, looked up: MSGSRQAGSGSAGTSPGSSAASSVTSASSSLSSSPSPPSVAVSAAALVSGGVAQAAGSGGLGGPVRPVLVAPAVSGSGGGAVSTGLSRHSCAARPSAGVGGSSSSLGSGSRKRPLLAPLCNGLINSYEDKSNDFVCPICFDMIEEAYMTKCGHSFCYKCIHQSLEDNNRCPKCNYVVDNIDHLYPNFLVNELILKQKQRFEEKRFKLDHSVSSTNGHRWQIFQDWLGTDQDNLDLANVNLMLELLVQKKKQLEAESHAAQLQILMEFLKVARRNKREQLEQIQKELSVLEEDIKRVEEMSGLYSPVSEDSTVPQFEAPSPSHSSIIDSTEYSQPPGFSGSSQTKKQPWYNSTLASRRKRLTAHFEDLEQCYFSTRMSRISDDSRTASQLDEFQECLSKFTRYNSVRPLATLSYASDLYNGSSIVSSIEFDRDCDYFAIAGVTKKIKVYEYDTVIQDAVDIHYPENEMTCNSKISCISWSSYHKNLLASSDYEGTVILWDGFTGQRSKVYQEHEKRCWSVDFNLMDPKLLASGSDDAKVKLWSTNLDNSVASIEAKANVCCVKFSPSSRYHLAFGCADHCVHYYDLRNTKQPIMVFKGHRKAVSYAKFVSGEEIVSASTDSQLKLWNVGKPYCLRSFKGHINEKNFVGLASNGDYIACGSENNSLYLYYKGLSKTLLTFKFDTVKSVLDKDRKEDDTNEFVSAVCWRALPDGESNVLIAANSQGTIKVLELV
UniProt Q96I36: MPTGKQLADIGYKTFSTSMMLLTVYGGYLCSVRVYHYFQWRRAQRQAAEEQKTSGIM
UniProt Q7Z4G1, whole entry, looked up: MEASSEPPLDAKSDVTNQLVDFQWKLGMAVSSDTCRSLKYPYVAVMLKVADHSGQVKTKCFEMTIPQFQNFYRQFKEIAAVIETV
UniProt Q8NE35: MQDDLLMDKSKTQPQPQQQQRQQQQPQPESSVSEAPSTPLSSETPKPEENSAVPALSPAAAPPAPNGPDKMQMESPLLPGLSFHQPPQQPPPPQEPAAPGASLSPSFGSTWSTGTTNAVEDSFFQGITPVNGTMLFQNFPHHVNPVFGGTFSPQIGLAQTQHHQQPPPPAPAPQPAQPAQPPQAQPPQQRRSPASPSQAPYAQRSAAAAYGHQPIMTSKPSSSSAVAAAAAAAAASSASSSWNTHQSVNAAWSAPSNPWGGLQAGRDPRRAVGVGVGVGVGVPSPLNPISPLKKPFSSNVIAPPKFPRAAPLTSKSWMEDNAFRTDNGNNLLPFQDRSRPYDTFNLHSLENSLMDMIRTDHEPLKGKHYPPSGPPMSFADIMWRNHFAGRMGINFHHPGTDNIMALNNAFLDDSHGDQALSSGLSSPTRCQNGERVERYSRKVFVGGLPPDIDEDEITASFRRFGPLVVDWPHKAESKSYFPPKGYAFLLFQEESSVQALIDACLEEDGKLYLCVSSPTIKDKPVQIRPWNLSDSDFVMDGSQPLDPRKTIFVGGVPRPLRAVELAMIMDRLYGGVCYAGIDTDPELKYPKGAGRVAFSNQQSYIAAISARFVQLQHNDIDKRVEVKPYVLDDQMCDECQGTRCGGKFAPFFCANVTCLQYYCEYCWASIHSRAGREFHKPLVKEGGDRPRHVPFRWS
UniProt Q86VU5: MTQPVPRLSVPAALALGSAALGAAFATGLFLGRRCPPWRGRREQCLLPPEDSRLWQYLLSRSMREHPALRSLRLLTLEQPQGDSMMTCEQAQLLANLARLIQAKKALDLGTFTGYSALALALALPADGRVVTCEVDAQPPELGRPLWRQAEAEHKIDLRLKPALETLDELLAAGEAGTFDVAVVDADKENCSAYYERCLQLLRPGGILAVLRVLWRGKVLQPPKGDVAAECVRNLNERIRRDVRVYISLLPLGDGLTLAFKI
UniProt Q9BWP8: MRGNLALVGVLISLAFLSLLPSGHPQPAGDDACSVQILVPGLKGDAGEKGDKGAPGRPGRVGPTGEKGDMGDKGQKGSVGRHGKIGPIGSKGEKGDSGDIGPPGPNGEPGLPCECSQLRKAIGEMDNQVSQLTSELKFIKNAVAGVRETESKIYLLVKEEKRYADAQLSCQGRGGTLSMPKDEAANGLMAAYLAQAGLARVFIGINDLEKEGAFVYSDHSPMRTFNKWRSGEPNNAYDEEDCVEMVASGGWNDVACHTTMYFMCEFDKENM
UniProt Q17RY0: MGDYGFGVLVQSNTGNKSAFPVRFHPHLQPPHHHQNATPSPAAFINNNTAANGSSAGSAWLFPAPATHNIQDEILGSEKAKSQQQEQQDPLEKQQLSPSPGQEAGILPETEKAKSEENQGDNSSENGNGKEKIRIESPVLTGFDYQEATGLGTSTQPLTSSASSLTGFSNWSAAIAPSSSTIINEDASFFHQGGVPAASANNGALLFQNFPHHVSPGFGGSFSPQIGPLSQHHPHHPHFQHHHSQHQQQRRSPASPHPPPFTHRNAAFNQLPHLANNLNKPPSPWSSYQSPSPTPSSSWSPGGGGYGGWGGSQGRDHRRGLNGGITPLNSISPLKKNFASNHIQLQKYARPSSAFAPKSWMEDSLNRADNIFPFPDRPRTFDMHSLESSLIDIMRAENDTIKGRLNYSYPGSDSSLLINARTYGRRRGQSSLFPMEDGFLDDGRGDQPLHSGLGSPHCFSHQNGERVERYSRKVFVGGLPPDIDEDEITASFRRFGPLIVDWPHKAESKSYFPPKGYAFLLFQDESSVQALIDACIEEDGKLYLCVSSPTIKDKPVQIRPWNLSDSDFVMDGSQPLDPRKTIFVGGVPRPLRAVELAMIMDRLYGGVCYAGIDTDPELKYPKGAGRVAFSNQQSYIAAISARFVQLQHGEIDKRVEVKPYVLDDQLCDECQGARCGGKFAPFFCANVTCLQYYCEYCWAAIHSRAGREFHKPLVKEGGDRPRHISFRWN
UniProt Q9UNS2: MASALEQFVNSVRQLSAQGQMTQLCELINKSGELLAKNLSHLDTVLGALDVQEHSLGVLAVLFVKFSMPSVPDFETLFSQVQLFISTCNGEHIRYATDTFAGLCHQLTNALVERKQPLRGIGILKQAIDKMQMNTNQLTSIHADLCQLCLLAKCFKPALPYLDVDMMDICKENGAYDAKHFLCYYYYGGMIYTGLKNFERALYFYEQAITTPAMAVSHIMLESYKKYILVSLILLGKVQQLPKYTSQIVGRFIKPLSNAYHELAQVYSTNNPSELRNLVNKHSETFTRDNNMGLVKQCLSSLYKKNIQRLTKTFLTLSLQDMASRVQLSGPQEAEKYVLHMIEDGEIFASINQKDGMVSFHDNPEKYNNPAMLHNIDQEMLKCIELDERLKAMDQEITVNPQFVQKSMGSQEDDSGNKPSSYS
UniProt O14810: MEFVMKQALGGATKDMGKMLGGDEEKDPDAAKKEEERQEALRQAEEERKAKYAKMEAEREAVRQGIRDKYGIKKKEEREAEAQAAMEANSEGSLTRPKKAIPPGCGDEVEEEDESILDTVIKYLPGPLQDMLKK

compound: O=C1NC(=O)C(c2cnc3ccccn23)=C1c1cn2c3c(cc(F)cc13)CN(C(=O)N1CCCCC1)CC2; assay: log2 fold change, soluble protein after heating vs DMSO (PISA); higher = thermal stabilisation; K562 lysate, 10 uM; active = over 0.2 and 3.5 SD of the protein, either way, in both replicates (recomputed)
Summary of the method: (§1)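 Pellets of K562 cells were dounce-homogenised in PBS pH 7.4 with 1 mM MgCl2, and the crude extract was held at 1 mg/mL protein for a 30 min treatment with 10 μM compound. Aliquots were heated for 3 min over 48°C-58°C and pooled before NP-40 was added to 0.5% at 4°C. The supernatant from 21,000xg for 90 min was quantified by TMTpro 16plex LC-MS/MS with channel sums equalised. Values are reported from duplicates as log-two fold change in thermal stability relative to solvent controls.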

log2 fold change, inactive:
COL6A3 (UniProt P12111) -0.093
COMMD3-BMI1 (UniProt R4GMX3) 0.026
CRABP2 (UniProt P29373) 0.007
COA7 (UniProt Q96BR5) -0.011
CORO6 isoform 5 (UniProt Q6QEF8) -0.008
COX7B (UniProt P24311) 0
COX17 (UniProt Q14061) 0.079
COX10 (UniProt Q12887) -0.045
CORO1C isoform 3 (UniProt Q9ULV4) -0.01
CPLANE2 (UniProt Q9BU20) -0.045
COMMD4 (UniProt Q9H0A8) -0.054
CORO2A (UniProt Q92828) -0.05
COQ6 (UniProt Q9Y2Z9) -0.018
COPS2 (UniProt P61201) 0.034
CPNE2 (UniProt Q96FN4) 0.099
COQ8B (UniProt Q96D53) 0.123
COP1 (UniProt Q8NHY2) 0.029
COX14 (UniProt Q96I36) -0.053
CNOT7 (UniProt H0YBT3) -0.048
CNDP2 (UniProt Q96KP4) -0.008
COG2 (UniProt Q14746) 0.061
COMMD6 isoform 2 (UniProt Q7Z4G1) -0.048
CPEB3 (UniProt Q8NE35) 0.008
COQ8A (UniProt Q8NI60) 0.016
CPA4 (UniProt Q9UI42) 0.313
CNOT10 (UniProt Q9H9A5) -0.008
COMTD1 (UniProt Q86VU5) 0.02

compound: c1cn2cc(-c3ccc4cn[nH]c4c3)nc(Nc3ccc(N4CCOCC4)cc3)c2n1 [entospletinib]; assay: as above
Summary of the method: as §1

log2 fold change, inactive:
COMMD3-BMI1 (UniProt R4GMX3) -0.005
CNK3/IPCEF1 isoform 2 (UniProt G9CGD6) 0.008
COLEC11 isoform 10 (UniProt Q9BWP8) 0.01
CRABP2 (UniProt P29373) -0.209
COA7 (UniProt Q96BR5) -0.041
COX7B (UniProt P24311) 0.104
COX10 (UniProt Q12887) -0.049
CORO1C isoform 3 (UniProt Q9ULV4) -0.013
COMMD4 (UniProt Q9H0A8) 0.028
CPEB4 (UniProt Q17RY0) -0.034
CORO2A (UniProt Q92828) 0.042
COQ6 (UniProt Q9Y2Z9) 0.012
COPS3 isoform 2 (UniProt Q9UNS2) 0.056
COPS2 (UniProt P61201) 0.14
CPNE2 (UniProt Q96FN4) 0.013
COQ8B (UniProt Q96D53) -0.298
COQ3 (UniProt Q9NZJ6) -0.013
CNDP2 (UniProt Q96KP4) 0.01
COG2 (UniProt Q14746) 0.058
COMMD6 isoform 2 (UniProt Q7Z4G1) -0.072
COQ8A (UniProt Q8NI60) 0.053
CPLX1 (UniProt O14810) 0.119
CNNM1 (UniProt Q9NRU3) -0.01
CNOT10 (UniProt Q9H9A5) 0.008
COMTD1 (UniProt Q86VU5) 0.001
